Results: article PMC9774693
No constants are given. Whether binding was seen depends on the method and setting. Binding seen in cells or lysates may run through a third protein. Some binding calls cover weakened binding; strength is not graded here.

Protein sequences, listed by entry. Tags and fused reporters are not part of them.
UniProt Q96EB6: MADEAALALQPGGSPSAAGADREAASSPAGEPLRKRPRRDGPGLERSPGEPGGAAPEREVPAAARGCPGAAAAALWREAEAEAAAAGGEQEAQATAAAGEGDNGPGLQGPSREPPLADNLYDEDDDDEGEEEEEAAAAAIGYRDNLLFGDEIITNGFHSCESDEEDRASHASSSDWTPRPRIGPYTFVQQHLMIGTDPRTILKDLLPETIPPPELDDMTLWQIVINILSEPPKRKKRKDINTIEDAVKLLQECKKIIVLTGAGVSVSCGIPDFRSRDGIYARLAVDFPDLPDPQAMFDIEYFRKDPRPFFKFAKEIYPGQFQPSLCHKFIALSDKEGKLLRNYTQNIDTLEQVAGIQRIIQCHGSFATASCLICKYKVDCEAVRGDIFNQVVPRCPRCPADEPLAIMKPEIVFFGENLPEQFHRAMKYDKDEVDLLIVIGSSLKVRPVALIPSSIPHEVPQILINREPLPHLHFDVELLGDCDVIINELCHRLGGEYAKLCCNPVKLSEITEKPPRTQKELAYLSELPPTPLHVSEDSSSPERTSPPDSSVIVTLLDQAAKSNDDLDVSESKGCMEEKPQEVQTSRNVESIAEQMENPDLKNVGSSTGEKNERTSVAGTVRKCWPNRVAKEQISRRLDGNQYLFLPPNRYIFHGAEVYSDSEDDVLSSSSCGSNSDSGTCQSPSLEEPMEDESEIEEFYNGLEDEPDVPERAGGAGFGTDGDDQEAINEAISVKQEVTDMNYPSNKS

Legend:
[1] = target: SIRT1 (human (endogenous in HEK 293T and MCF-7)) (UniProt Q96EB6); assay: co-IP; MCF-7 lysate (IP lysis buffer), precleared with IgG and Protein A/G agarose; precipitated with SIRT1 (IF3) mouse mAb, 4 C; Western blot; IgG as negative control
[2] = target: SIRT1 (human (endogenous in HEK 293T and MCF-7)) (UniProt Q96EB6); assay: co-IP; HEK 293T lysate (IP lysis buffer), precleared with IgG and Protein A/G agarose; precipitated with SIRT1 (IF3) mouse mAb, 4 C; Western blot; IgG as negative control

Ras-GTPase-activating protein SH3 domain-binding protein 1 (G3BP1) (from UniProt Q13283-1 1-466)
binding [1]: binds | binding [2]: binds
